Results are given in words; binding and its absence hold for the method and conditions named. For some of these results: Binding seen in cells or lysates may run through a third protein. Some results given as binding are weak or reduced against the parent protein; the word gives no strength. Sequences can lack the tags named with a protein.

From publication PMC4585807 come the findings set out here.

T1: BD-VQ29 (Arabidopsis) (UniProt Q9SZG3)
T1 sequence: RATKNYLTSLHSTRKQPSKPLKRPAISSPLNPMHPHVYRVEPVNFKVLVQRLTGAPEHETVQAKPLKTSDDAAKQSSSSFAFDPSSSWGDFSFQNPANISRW

B1: VQ29-cYFP / VQ29-nYFP (protein, UniProt Q9SZG3 1-123)
chain: MEATSQQFMSQSYLNAQETTTRATKNYLTSLHSTRKQPSKPLKRPAISSPLNPMHPHVYRVEPVNFKVLVQRLTGAPEHETVQAKPLKTSDDAAKQSSSSFAFDPSSSWGDFSFQNPANISRW
B2: AD-VQ21 (protein, UniProt Q8LGD5 1-222)
chain: MDPSEYFAGGNPSDQQNQKRQLQICGPRPSPLSVHKDSHKIKKPPKHPAPPPNRDQPPPYIPREPVVIYAVSPKVVHATASEFMNVVQRLTGISSGVFLESGGGGDVSPAARLASTENASPRGGKEPAARDETVEINTAMEEAAEFGGYAPGILSPSPALLPTASTGIFSPMYHQGGMFSPAIPLGLFSPAGFMSPFRSPGFTSLVASPTFADFFSHIWDQD
B3: AD-VQ11 (protein, UniProt Q9M8L3 1-177)
chain: MSHQQPPSYATEPNTMFVQADPSNFRNIVQKLTGAPPDISSSSFSAVSAAHQKLPLTPKKPAFKLHERRQSSKKMELKVNNITNPNDAFSHFHRGFLVSPVSHLDPFWARVSPHSAREEHHAQPDKEEQKAIAEKGFYFLPSPRSGSEPAPELLPLFPLRSPNGTNHRIHEDNHRDS
B4: AD-VQ29 (protein, UniProt Q9SZG3 1-123)
chain: MEATSQQFMSQSYLNAQETTTRATKNYLTSLHSTRKQPSKPLKRPAISSPLNPMHPHVYRVEPVNFKVLVQRLTGAPEHETVQAKPLKTSDDAAKQSSSSFAFDPSSSWGDFSFQNPANISRW
B5: AD-VQ17 (protein, UniProt O48522 1-172)
chain: MEIEATTVQKRRSLPTIAMHKQSRTLTKSKPKIRIIHIFAPEIIKTDVANFREIVQNLTGKQDHHHHDLPHQKGLKRNPRSRRSHDHHEVHDMNKSHGFCINSDEEEEGMVSMTWNGNGDESSGGFLNGLGDLDGFIQELGEFPYLPFTIDPAVASSSHLHGNVFAEPHHYA
B6: AD-VQ5 (protein, UniProt Q3ED38 1-220)
chain: MYQRPQNDYLRVNKRKSNYDQLNADSNSVPQLAQTQPRVQVYIIDKNDFKSLVQQLTSPQPCDRLPQNIPKHQDIRPEPINWTSSIPPSAMAVQEDPDVSLYMAYLQSLLEESSGSNGDQFEEPFDKYHSHMMAQSQPQDPTQSMPQSNGFEPFPSSWFNGSTQEMHGASSLQSTRVDYEYPLPLTPNFTFSSMTQHEVFGSDLDSIGPDEDLEFSYEIN
B7: AD-VQ1 (protein, UniProt Q1G3U8 1-98)
chain: MSAGVRSEPMKVVFINTQYVQTDARSFKTIVQELTGKNAVVADGPYEFSGQGYGGKDSSQRFCGVGKEAERGVETTEFDSFFREMPPVGELYNLWSDH
B8: AD-VQ18 (protein, UniProt O64868 1-188)
chain: MEITQYQSFHEGSSSRVSMNRNSQVISKIKPKIRIIHIFAPEVIKTDVKNFRSLVQSLTGKPAPGEAKTGKKRAKSRITTPQEPVCDDHQPVNRLSGFTGLLANGGNHQVKEEWGSGDQSTSNTNTYFDLEGLIQDVGEDYFSSFPMRSSSSSQVEGFIFNNNNNNNNNNNNNNNNNTNFDTKAHNSS
B9: AD-VQ9 (protein, UniProt Q9M9F0 1-311)
chain: MDKSCNSSGDSSAVSASATSSTGNNTTNRDHYLRQLNKLSHKISKPTNSSSSVSVANREIDLPPPPPLQINQGNLHQHQPPVYNINKNDFRDVVQKLTGSPAHERISAPPQQPIHHPKPQQSSRLHRIRPPPLVHVINRPPGLLNDALIPQGSHHMNQNWTGVGFNLRPTAPLSPLPPLPPVHAAAESPVSSYMRYLQNSMFAIDSNRKEFSGLSPLAPLVSPRWYQQQENAPPSQHNSFPPPHPPPPSSAVSQTVPTSIPAPPLFGCSSSPKSPYGLLSPSILLSPSSGQLGFPVSPTTVPLPSPKYKGH
B10: AD-VQ10 (protein, UniProt Q8VYI5 1-108)
chain: MSGRGKVKSEPMKVVFINTQYVETDARSFKTVVQELTGKNAIVAAGPFDSPSAFDGRCYDGGSKIGEDTRQLHGGGGGGGRMGTTTEFDRLFKEMPHMEELYKLWSEY
B11: AD-VQ15 (protein, UniProt O80683 1-238)
chain: MVTSEGLASVDSWLYRQGFNVDSWLLSDTFSHDNDLLARALHTTVTAPHTLTPSSAFFDSSAVSHPSSTNTLSSTVSGASDPEIIGGGAKRKRNCLLTDGKAAKRRARASKKSQTTFITADPSNFRQMVQQVTGAKYIDDSSSFGIFDPIVKPEPLRFVNKLPCGPSDRSTAVPMLDTSAFLSNHHQENLAVGNAFSGNSSSVGLPSGKPSATADPGGSAVEFDNYPTFPTLESWKVM
B12: AD-VQ8 (protein, UniProt Q9CA36 1-152)
chain: MIPTRCNEINGSRPSSLKLAGESHTIKKTSSCKSKPRPHGRASPVIIYAHSPKVIHTRAEDFMALVQRLTGLDEIIRRNTSESSSSVVTEEVNVGDDNTAAPFSQDRTQRQKLTDMPLFTPSSMTLFGSPTQLMYMSPNRTDSFRPLVFKSE
B13: AD-VQ13 (protein, UniProt O23660 1-204)
chain: MEKSPRYRDKAKNLLPSPSSCTTTPTRYVKDDMYETTFIRTDPSSFKQVVQLLTGIPKNPTHQPDPRFPPFHSIPPIKAVTNKKQSSSFRLSERRNSMKHYLNINPTHSGPPEILTPTILNFPALDLSPDTPLMSDPFYRPGSFSQSPSDSKPSFDDDQERSIKEKGFYLRPSPSTTPRDTEPRLLSLFPMTPIHSPAPSPHDH

The first assay has as its target VQ29-cYFP / VQ29-nYFP (Arabidopsis) (UniProt Q9SZG3). As to the kind of experiment: split reporter; BiFC with nYFP and cYFP fusions co-infiltrated by Agrobacterium EHA105 in N. benthamiana leaves; confocal microscopy 48 h after infiltration.
Consider B1, for which the binding entry is “binds”.

The target in another assay is T1, BD-VQ29 (Arabidopsis). The experiment in a line: two-hybrid; directed test in yeast Y2HGold; bait in pGBKT7 (Gal4 DNA-binding domain), prey in pGADT7; growth on selective media lacking Leu/Trp/His/Ade and containing 10 mM 3-aminotriazole.
For B2, the binding entry is on record as “binds”.

Consider B3, for which the binding entry is “binds”.

Regarding B4, the binding entry is on record as “binds”.

Regarding B5, the binding result was “binds”.

Take B6: the binding result is given as “binds weakly”.

For the molecule B7, the binding result was “binds”.

Turning to B8, the binding result is reported as “binds”.

Consider B9, for which the binding result is reported as “binds”.

Turning to B10, the binding entry is given as “binds”.

On to B11, for which the binding result was “binds weakly”.

As to B12, the binding result is on record as “binds”.

On to B13, for which the binding result is reported as “binds”.
